From publication PMC10766520
No constants are given. Whether binding was seen depends on the method and setting. In cells and extracts the contact can be indirect. Some results given as binding are weak or reduced against the parent protein; the word gives no strength. For some assays here: Where a sequence is shown, tags or fusion partners need not be part of it.

T1: TGFBR3-FLAG (UniProt Q03167)
T1 sequence: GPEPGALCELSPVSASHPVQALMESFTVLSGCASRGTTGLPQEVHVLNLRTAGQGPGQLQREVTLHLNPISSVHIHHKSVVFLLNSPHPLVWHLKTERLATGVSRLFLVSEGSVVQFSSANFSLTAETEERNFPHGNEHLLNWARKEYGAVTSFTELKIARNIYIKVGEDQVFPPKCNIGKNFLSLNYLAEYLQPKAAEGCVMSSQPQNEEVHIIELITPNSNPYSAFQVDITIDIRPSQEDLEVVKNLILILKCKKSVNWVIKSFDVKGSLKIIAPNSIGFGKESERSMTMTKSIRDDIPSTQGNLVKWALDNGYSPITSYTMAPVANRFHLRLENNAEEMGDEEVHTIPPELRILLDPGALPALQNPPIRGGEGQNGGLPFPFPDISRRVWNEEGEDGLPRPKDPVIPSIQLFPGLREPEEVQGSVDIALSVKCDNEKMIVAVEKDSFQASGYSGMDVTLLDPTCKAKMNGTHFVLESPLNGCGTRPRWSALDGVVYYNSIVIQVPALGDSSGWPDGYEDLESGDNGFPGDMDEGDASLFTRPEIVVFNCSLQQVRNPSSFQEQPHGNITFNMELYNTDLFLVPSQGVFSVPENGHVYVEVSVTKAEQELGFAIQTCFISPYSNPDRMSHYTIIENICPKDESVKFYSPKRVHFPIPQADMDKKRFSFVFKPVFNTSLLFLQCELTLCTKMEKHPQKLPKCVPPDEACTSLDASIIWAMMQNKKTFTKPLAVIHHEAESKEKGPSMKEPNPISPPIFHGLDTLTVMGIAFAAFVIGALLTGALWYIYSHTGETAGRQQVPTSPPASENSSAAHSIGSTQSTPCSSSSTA

T2: TGFBR3, endogenous (human (endogenous in 143B)) (UniProt Q03167)
T2 sequence: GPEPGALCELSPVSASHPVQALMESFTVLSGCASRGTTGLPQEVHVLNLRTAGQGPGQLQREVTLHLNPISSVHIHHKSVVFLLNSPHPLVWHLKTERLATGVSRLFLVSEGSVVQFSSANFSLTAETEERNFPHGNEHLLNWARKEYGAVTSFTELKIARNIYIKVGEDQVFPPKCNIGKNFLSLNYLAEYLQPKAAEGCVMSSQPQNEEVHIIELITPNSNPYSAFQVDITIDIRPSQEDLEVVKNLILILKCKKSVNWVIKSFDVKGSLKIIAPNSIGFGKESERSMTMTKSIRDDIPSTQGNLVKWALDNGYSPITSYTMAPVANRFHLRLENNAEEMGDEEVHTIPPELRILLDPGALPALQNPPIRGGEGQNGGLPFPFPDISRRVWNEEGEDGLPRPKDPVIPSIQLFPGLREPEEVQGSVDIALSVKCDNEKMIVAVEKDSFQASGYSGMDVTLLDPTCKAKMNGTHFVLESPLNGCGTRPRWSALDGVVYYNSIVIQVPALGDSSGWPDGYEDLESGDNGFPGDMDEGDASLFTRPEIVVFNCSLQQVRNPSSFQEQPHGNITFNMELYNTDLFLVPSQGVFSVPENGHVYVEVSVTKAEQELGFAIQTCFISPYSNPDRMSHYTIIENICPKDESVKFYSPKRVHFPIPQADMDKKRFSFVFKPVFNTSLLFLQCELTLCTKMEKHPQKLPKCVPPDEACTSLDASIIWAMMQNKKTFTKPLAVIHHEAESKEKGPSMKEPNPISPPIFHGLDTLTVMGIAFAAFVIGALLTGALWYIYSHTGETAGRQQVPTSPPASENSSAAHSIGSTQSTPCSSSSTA


Assays:
[1] = target: T1, TGFBR3-FLAG; test: co-IP; exogenous: 143B cell lysate (IP lysis buffer), antibodies against HA-tag or FLAG-tag with Protein A+G magnetic beads, 4 °C overnight, immunoblot
[2] = target: T2, TGFBR3, endogenous (human (endogenous in 143B)); test: co-IP; endogenous: 143B cell lysate (IP lysis buffer), antibodies against SDC4 or TGFBR3 with Protein A+G magnetic beads, 4 °C overnight, immunoblot

binding [1]	binding [2]	Binder
binds	–	SDC4-HA (Syndecan-4, HA-tagged) (protein, UniProt P31431-1 19-198) ESIRETEVIDPQDLLEGRYFSGALPDDEDVVGPGQESDDFELSGSGDLDDLEDSMIGPEVVHPLVPLDNHIPERAGSGSQVPTEPKKLEENEVIPKRISPVEESEDVSNKVSMSSTVQGSNIFERTEVLAALIVGGIVGILFAVFLILLLMYRMKKKDEGSYDLGKKPIYKKAPTNEFYA
–	binds	SDC4 (Syndecan-4), endogenous (protein, UniProt P31431-1 19-198) ESIRETEVIDPQDLLEGRYFSGALPDDEDVVGPGQESDDFELSGSGDLDDLEDSMIGPEVVHPLVPLDNHIPERAGSGSQVPTEPKKLEENEVIPKRISPVEESEDVSNKVSMSSTVQGSNIFERTEVLAALIVGGIVGILFAVFLILLLMYRMKKKDEGSYDLGKKPIYKKAPTNEFYA
